Laboratory results: PMC3145648
No constants are given. Whether binding was seen depends on the method and setting. Binding seen in cells or lysates may run through a third protein. Binding calls can cover weak binding; strength is not graded here.

B1: HSP47, endogenous in rat primary cortical neurons (protein, UniProt P29457 18-417)
chain: AEVKKPVEAAAPGTAEKLSSKATTLAERSTGLAFSLYQAMAKDQAVENILLSPLVVASSLGLVSLGGKATTASQAKAVLSAEKLRDEEVHTGLGELVRSLSNSTARNVTWKLGSRLYGPSSVSFADDFVRSSKQHYNCEHSKINFRDKRSALQSINEWASQTTDGKLPEVTKDVERTDGALLVNAMFFKPHWDEKFHHKMVDNRGFMVTRSYTVGVTMMHRTGLYNYYDDEKEKLQLVEMPLAHKLSSLIILMPHHVEPLERLEKLLTKEQLKTWMGKMQKKAVAISLPKGVVEVTHDLQKHLAGLGLTEAIDKNKADLSRMSGKKDLYLASVFHATAFEWDTEGNPFDQDIYGREELRSPKLFYADHPFIFLVRDNQSGSLLFIGRLVRPKGDKMRDEL

Legend:
[1] = biological target: T1, HSP47, endogenous in rat primary cortical neurons (rat (endogenous in primary cortical neurons)) (UniProt P29457); test: cross-linking + co-IP; primary rat cortical neurons (4 DIV) exposed to DSP (200 µg/ml in PBS, 10 min, room temperature) before lysis; lysates precipitated with control (MBP), anti-HSP47 or anti-APP (6E10) antibodies on Dynabeads protein G, blotted with anti-APP (C-Term) or anti-HSP47
T1 sequence: B1 chain

[2] = biological target: APP, endogenous in rat primary cortical neurons (rat (endogenous in primary cortical neurons)); test: as above

Molecule	binding [1]	binding [2]
APP, endogenous in rat primary cortical neurons	binds	–
B1	–	binds
